The whole screen tested about 300,000 compounds, of which about 5,400 (1.8%) were called active. The inconclusive results got no clear call from the source; some entries with a clear call stand among them for comparison. The call rests on the fitted dose curve; tested in HEK293 cells. Potencies of inconclusive entries are doubtful fits and often do not repeat.
experiment: qHTS for inhibitors of binding or entry into cells for Marburg Virus; settings: Marburg virus pseudotyped entry inhibition, cell reporter; series mostly up to 37.8 µM
Potency means the concentration at half of the fitted maximal effect.

SMILES	Potency
Cc1ccc(CNC(=O)C2c3ccccc3C(=O)N(C)C2c2c[nH]c3ccccc23)o1 (stereo unspecified)	inconclusive: 35.5 µM [inhibitor, single point]
CCc1noc(-c2ccc(NC(C)c3ccccc3)c([N+](=O)[O-])c2)n1 (stereo unspecified)	inactive
O=C(c1cc(-c2ccc(Cl)s2)nc2ccccc12)N1CCOCC1	inconclusive: 35.5 µM [inhibitor, partial curve, poor fit]
CCOC(=O)c1sc2nc3c(cc2c1N)COC(C(C)C)C3 (stereo unspecified)	inactive
Clc1ccc(OCCN2CCOCC2)cc1Cl	inactive
CC(C)C(=O)Nc1nc(-c2ccc3c(c2)CCN3C(=O)C2CC2)cs1	inactive
COc1ccc(C(=O)N2CCc3cc(OC)c(OC)cc3C2c2cccc([N+](=O)[O-])c2)cc1OC (stereo unspecified)	inconclusive: 35.5 µM [inhibitor, single point]
S=C(NCc1ccccn1)Nc1ccc(Cl)cc1Cl	inactive
Cc1c(NC(=O)/C(C#N)=C/c2ccc(-c3ccc(Cl)cc3)o2)c(=O)n(-c2ccccc2)n1C	inconclusive: 12.6 µM [inhibitor, partial curve, poor fit]
CC(Sc1nnnn1-c1cccc(F)c1)C(=O)NC1CCCC1 (stereo unspecified)	inconclusive: 0.398 µM [activator, partial curve, poor fit]
COc1ccc(N2CCN(C(=O)Cc3coc4ccc(C)cc34)CC2)cc1	inactive
CCc1ccc(CNC(=O)c2ccc(CSc3nc4ccncc4n3Cc3ccc(OC)cc3)cc2)cc1	inconclusive: 35.5 µM [inhibitor, single point]
O=C(Nc1ccc(N2CCOCC2)cc1)C1CC1	inactive
COc1cc(N=Cc2c(O)c3ccccc3oc2=O)c(OC)cc1Cl	inconclusive: 1.78 µM [inhibitor, partial curve, poor fit]
Cc1ccc(-c2cc(C(F)F)nc(N3CCC(C)CC3)n2)cc1	inconclusive: 29.1 µM [inhibitor, partial curve, poor fit]
Cc1ccc(OCc2nc(C#N)c(NCCCn3ccnc3)o2)cc1	inactive
COc1ccc(OC)c(Nc2ccc(Nc3cc(OC)ccc3OC)nn2)c1	inconclusive: 36.6 µM [inhibitor, single point]
COc1ccc(C(=O)Nc2ccccc2C(=O)NC(C(=O)NCc2ccco2)C(C)C)cc1 (stereo unspecified)	inactive
COc1ccc(/C=C/c2nc3ccccc3n2C)cc1	inconclusive: 1 µM [inhibitor, partial curve, poor fit]
N#C/C(=C\c1ccc(-c2ccccc2C(=O)O)o1)c1nc2ccccc2[nH]1	inactive
CCc1ccc(C(=O)CCC(=O)Nc2ccc(OC)c(S(=O)(=O)N3CCCCC3)c2)cc1	inconclusive: 25.1 µM [inhibitor, single point]
O=c1c2cn[nH]c2nc(SCc2ccc3c(c2)OCCO3)n1-c1ccccc1	inconclusive: 11.2 µM [inhibitor, partial curve, poor fit]
Cc1ccc(-c2[nH]nc3c2C(c2ccc(OC(=O)N4CCOCC4)cc2)C(C#N)=C(N)O3)cc1 (stereo unspecified)	inconclusive: 4.11 µM [activator, full curve, poor fit]

Structures from the list above with a cyano group:
SMILES	Potency
Cc1c(NC(=O)/C(C#N)=C/c2ccc(-c3ccc(Cl)cc3)o2)c(=O)n(-c2ccccc2)n1C	inconclusive: 12.6 µM [inhibitor, partial curve, poor fit]
Cc1ccc(OCc2nc(C#N)c(NCCCn3ccnc3)o2)cc1	inactive
N#C/C(=C\c1ccc(-c2ccccc2C(=O)O)o1)c1nc2ccccc2[nH]1	inactive
Cc1ccc(-c2[nH]nc3c2C(c2ccc(OC(=O)N4CCOCC4)cc2)C(C#N)=C(N)O3)cc1 (stereo unspecified)	inconclusive: 4.11 µM [activator, full curve, poor fit]

Next part:

SMILES	Potency
CCOc1ccc(N=C(/C(C(=O)C(=O)N2CCOCC2)=C(/O)c2ccccc2)c2ccccc2)cc1	inactive
CCOC(=O)CCc1c(C)nc(SCCN2CCCC2)c(C#N)c1C	inconclusive: 29.1 µM [inhibitor, single point]
Cc1ccc(-c2ccc(CCC(=O)O)n2C(C)C)cc1	inactive
COc1ccccc1N1CCN(Cc2nc(N)nc(Nc3ccccc3)n2)CC1	inconclusive: 0.366 µM [inhibitor, full curve]
COc1ccc2cc(C3=CC(=O)CCC3)ccc2c1	inconclusive: 15.8 µM [inhibitor, single point]
Cn1cc(-c2nnnn2-c2ccc(Cl)cc2)c(=O)c2ccccc21	inconclusive: 0.0411 µM [inhibitor, partial curve, poor fit]
O=C(NNc1ncnc2sccc12)c1ccc(Cl)cc1	inconclusive: 0.112 µM [inhibitor, full curve, poor fit]
COc1ccc(Nc2c(-c3ccc(Cl)cc3)nc3cnccn23)cc1OC	inconclusive: 14.1 µM [inhibitor, single point]
Cc1cc(=O)n2[nH]c(SCc3c(F)cccc3Cl)nc2n1	inconclusive: 35.5 µM [inhibitor, single point]
C(=N\Nc1nncc2ccccc12)/c1ccccc1	inactive
COc1ccc2c(c1)CCC1C2=NN(/C(C)=C/C(C)=O)C1c1cccc(F)c1 (stereo unspecified)	inconclusive: 3.16 µM [inhibitor, single point]
COc1cccc(/C=N/NC(=O)c2cc(C34CC5CC(CC(C5)C3)C4)[nH]n2)c1	inconclusive: 12.6 µM [activator, single point]
CCOc1ccc(NC(=O)c2c(NC(=O)c3ccco3)sc3c2CCC(C(C)(C)C)C3)cc1 (stereo unspecified)	inactive
O=S(=O)(NCc1cc(-c2ccc(Cl)cc2)no1)c1ccccc1	inactive
Cc1cc(C)c2c(=O)[nH]c(SCC(=O)c3ccc(F)c(C)c3)nc2n1	inactive
O=C(Cc1ccc(Cl)cc1)Nc1ccc(N2CCN(C(=O)c3ccco3)CC2)c(Cl)c1	inconclusive: 35.5 µM [inhibitor, single point]
NC(=O)[C@@H]1CCCN1C(=O)c1ccc2oc(CCc3ccccc3)nc2c1	inactive
Fc1ccccc1C(c1nnnn1C1CCCC1)N1CCN(Cc2ccccc2)CC1 (stereo unspecified)	inconclusive: 22.4 µM [activator, single point]
Cc1ccc(C(=O)ONc2ccc(N=O)cc2)cc1	inactive
CC(=O)C1=C(C)N(Cc2ccccc2)C(=O)N[C@@H]1c1cccc(C(F)(F)F)c1	inconclusive: 0.146 µM [activator, full curve, poor fit]
CSCc1cc(N2CCCC2)nc(-c2ccccc2)n1	inactive
COc1ccccc1C(=O)CN1C(=O)NC2(CCCCCC2)C1=O	inactive
Cc1nc2sccn2c1-c1nc(-c2cc3ccccc3o2)cs1	inconclusive: 0.708 µM [activator, full curve, poor fit]

— PubChem BioAssay AID540276 (National Center for Advancing Translational Sciences (NCATS), 2011)
